{
  "source": "patent US20080081039A1",
  "about": "“Inorganic Selenium For Treatment Of Cancer” (priority 2004, published 2008)",
  "key": {"[1]": {"tested_on": "GFP-FKHR fusion protein", "test": "GFP-FKHR cellular localization in transfected PC-3 cells", "assay_type": "cell-based, human", "details": "LY294002 50 μM 1 hour; sodium selenate or selenomethionine 0.5 mM 3 hours", "procedure": "The day before transfection, 5×10^5 PC-3 cells were seeded in 24-well dishes and transiently transfected with 0.8 μg of pcDNA3-GFP-FKHRwt construct (kind gift Dr Bill Sellers, Dana-Farber Institute, Boston) using Lipofectamine 2000 (Invitrogen). Cells were permeabilized in 0.2% Triton X-100 and the nuclear contents stained with DAPI. Coverslips were mounted with fluorescent mounting medium (DAKO). The cellular distribution of green fluorescence was determined in dual fluorescent cells using a Leica epifluorescent microscope.\nReintroducing PTEN function in such cells induces translocation of FKHR to the nucleus eventually causing G1 arrest in PTEN-null cells (Nakamura et al 2000, supra)."}, "[2]": {"tested_on": "DU145 prostate cancer cells", "details": "cited from earlier work"}, "[3]": {"tested_on": "human kidney epithelial Q293 cells", "test": "Cell growth curve of Q293 cells, Trypan Blue", "assay_type": "cell-based", "details": "selenate 5 μM, LY294002 10 μM, 9 days", "procedure": "Q293 cells are a human kidney epithelial cell line routinely cultured in DMEM media (Invitrogen) in 5% foetal calf serum and 1% antibiotic/antimycotic mixture (Invitrogen).\nBetween 5×10^4 (FIGS. 1-2) and 1×10^5 LNCaP, CSS LNCaP or Q293 cells were allowed to attach overnight. […] Supernatants and cells were then harvested, combined and viable cells assessed by Trypan Blue exclusion assay. Experiments were performed in triplicate."}, "[4]": {"tested_on": "PC-3 prostate carcinoma cells", "details": "cited from earlier work"}, "[5]": {"tested_on": "Akt", "test": "Immunoblot of Akt phosphorylation in serum starved PC-3 cells", "assay_type": "cell-based, human", "details": "LY294002 50 μM pretreatment 1 hour, then sodium selenate 0.5 mM 10 minutes", "description": "The following antibodies were obtained from Cell Signaling Technology (Beverly, Mass., USA) unless otherwise stated: anti-p27^KIP1 (bd Pharmingen), anti-p21^CIP1 , ANTI-CYCLIN d1, ANTI-CYCLIN d3, ANTI-CDK4, ANTI-CDK6, ANTI-PHOSPHO rb (Ser807/811), anti-RB, anti-phospho Akt (Ser473), anti-phospho Akt (Thre308), anti-Akt, anti-phospho PDK1 (Ser241), anti-phospho PDK1 (Tyr373/376), anti-phospho GSK-3β, anti-phospho mTOR (Ser2448), anti-mTOR, anti-βIII tubulin (Promega).\nTo determine the effect of selenate on the phosphorylation of proteins involved in the PI3K/Akt signaling cascade, 5×10^5 PC-3 cells were allowed to attach for 10 hours. […] Cells were lysed in ELB (250 mM NaCl, 50 mM HEPES pH 7.0, 5 mM EDTA, 0.5 mM DTT, 0.2% TX100, 20 mM sodium fluoride, 2 mM sodium pervanadate, Complete Protease Inhibitor Cocktail (Roche)). Lysates were centrifuged for 15 minutes at 4° C. Protein concentration was determined using the BCA system (Sigma) and equal amounts of protein were loaded into each lane of a SDS-polyacrylamide gel. The proteins were transferred onto PVDF (Millipore) membranes and detected with anti-mouse or anti-rabbit secondary antibodies couples to horseradish peroxidase (HRP) and chemiluminescence using the SuperSignal West Dura (Pierce). Membranes were stripped using the Restore Western Blot Stripping Buffer (Pierce)."}},
  "note": "At least one compound was matched to its structure with a doubt left.",
  "data": [
    {"smiles": "O=c1cc(N2CCOCC2)oc2c(-c3ccccc3)cccc12", "note": "[LY294002]", "values": [
      {"measurement": "relocalization of GFP-FKHR from the cytoplasm to the nucleus", "setting": "[1]", "result": "marked relocalization"},
      {"measurement": "G1 arrest in DU145 cells", "setting": "[2]", "result": "lead to G1 arrest"},
      {"measurement": "apoptosis in DU-145 cells on inhibition of the PI3K pathway", "setting": "[2]", "result": "failed to induce apoptosis"},
      {"measurement": "Q293 cell proliferation", "setting": "[3]; CSS media (androgen ablation)", "result": "does significantly effect"},
      {"measurement": "Q293 cell proliferation", "setting": "[3]; normal serum", "result": "does significantly effect"},
      {"measurement": "G1 arrest in PC-3 cells", "setting": "[4]", "result": "lead to G1 arrest"},
      {"measurement": "selenate-induced transient boost in Akt phosphorylation after pretreatment", "setting": "[5]", "result": "completely blocked"}
    ]}
  ]
}
